Laboratory results from PubChem BioAssay AID662 (National Center for Advancing Translational Sciences (NCATS), 2007).
The other results are listed elsewhere or left out. Shown are side measurements of this screen, not its main read-out; they come without a call. Most of these compounds were active or inconclusive in the main read-out, so they are no random draw. Words in brackets tell the shape of the fitted curve; partial curves, single points and poor fits give uncertain potencies.

Test: Cell signaling CRE-BLA (Fsk stim)
Conditions: CHO CRE-bla reporter (cAMP response element driving beta-lactamase), forskolin EC10, beta-lactamase ratio; measured here: 460 nm blue channel
Outline: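 qHTS titration format; CRE-bla CHO reporter; stimulus EC10 NKH 477, a water-soluble forskolin. Read: CCF4 460/530 nm ratio. Potency expressed as AC50 for activators or inhibitors.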
For O=c1c(-c2ccc(F)c(F)c2)nc2cncnc2n1Cc1ccccc1Cl, the AC50 was 12.6 µM [rising, partial curve]. For Cn1c(=O)c2c(nc(NC3CCCCC3)n2Cc2ccccc2)n(C)c1=O, the AC50 was 12.6 µM [rising, partial curve]. In the case of C(=C/c1ccccc1)/CN1CCN(C(c2ccccc2)c2ccccc2)CC1, the AC50 is reported as 12.6 µM [falling, single point]. For Cn1c2ccccc2c2ncn(CCC3=CCCCC3)c(=O)c21, the AC50 was 25.1 µM [rising, single point]. For COCCCNC(=O)c1cc2c(=O)n(C)c3ccccc3c2n1C, the AC50 was 5.01 µM [rising, partial curve]. For CCOC(=O)c1nc(-c2ccccc2)oc1N(C)C, the AC50 was 10 µM [rising, single point]. In the case of COc1ccccc1C1=Nn2c(nnc2C2CCCCC2)SC1, the AC50 is reported as 5.01 µM [falling, single point]. For C=CCSc1nc2c(c(=O)[nH]c(=O)n2C)n1CC, the AC50 was 10 µM [rising, partial curve]. In the case of COc1ccc(NC(=O)C2CCN(S(=O)(=O)c3cccc4cccnc34)CC2)cc1OC, the AC50 is reported as 10 µM [rising, partial curve]. With CCC(Sc1nnc(C)s1)C(=O)Nc1nccs1 (centres undefined) the AC50 was 12.6 µM [rising, single point]. In the case of COc1cccc(Nc2ncc3nc(-c4ccccc4)c(=O)n(C)c3n2)c1, the AC50 is reported as 12.6 µM [rising, partial curve]. For CCOc1ccccc1C(=O)Nc1ccc(S(=O)(=O)N2CCOCC2)cc1, the AC50 was 6.31 µM [rising, partial curve]. In the case of O=C(C1CC1)N1CCc2cc(S(=O)(=O)N3CCOCC3)ccc21, the AC50 is reported as 12.6 µM [rising, single point]. For Cc1noc(/C=C/c2ccco2)c1S(=O)(=O)N1CCC(C(=O)N2c3ccccc3CC2C)CC1 (centres undefined), the AC50 was 12.6 µM [falling, single point]. With COc1cc(-c2c(C#N)c(=O)[nH]c3c2c(C)nn3-c2ccccc2)ccc1O the AC50 was 10 µM [rising, partial curve]. For COC(=O)CC1C(=O)NCCN1C(=O)CSc1nnc(Nc2ccc(OC)cc2)s1 (centres undefined), the AC50 was 0.1 µM [falling, full curve, poor fit]. For CCCCC/C=C\C[C@H](O)/C=C\c1cccc(C[C@H](O)CCCCO)n1, the AC50 was 15.8 µM [falling, partial curve]. With COc1ccc(-n2c(=O)c(-c3ccccc3)nc3cnc(N4CCN(C)CC4)nc32)cc1 the AC50 was 10 µM [rising, partial curve]. In the case of CCNC(=O)CC1C(=O)N(c2ccc(F)cc2)C(=O)N1CCc1ccc(OC)cc1 (centres undefined), the AC50 is reported as 0.0251 µM [falling, full curve, poor fit]. For O=C(NC1CCCC1)c1cc(-c2cccs2)on1, the AC50 was 10 µM [rising, partial curve]. With CCCn1c(-c2ccc(OC)cc2)nc2nc3ccccc3nc21 the AC50 was 10 µM [rising, partial curve]. In the case of CCOC(=O)N1CCC(NC(=O)c2cc(S(=O)(=O)N3CCc4ccccc43)cn2C)CC1, the AC50 is reported as 0.00316 µM [falling, full curve, poor fit]. In the case of O=C(Cc1ccc(F)cc1)N(c1ccccc1)C1C=CS(=O)(=O)C1 (centres undefined), the AC50 is reported as 3.98 µM [falling, partial curve]. For O=C(CN1C(=O)C2C3C=CC(C3)C2C1=O)Nc1cccc2c1CCCC2 (centres undefined), the AC50 was 1.58 µM [falling, partial curve]. With Cc1ccc(-c2nnc(CSc3nnc(C)s3)o2)cc1 the AC50 was 0.126 µM [falling, single point]. For CSc1ccc(S(=O)(=O)N2CCN(Cc3ccc4c(c3)OCO4)CC2)cc1, the AC50 was 12.6 µM [falling, partial curve]. In the case of O=C(c1cc2c(=O)oc3ccccc3c2s1)N1CCOCC1, the AC50 is reported as 0.501 µM [rising, single point]. For COc1ccccc1OCc1ccc(C(=O)N2CCN(C(=O)c3ccco3)CC2)cc1, the AC50 was 5.01 µM [rising, single point]. In the case of CCCCc1n[nH]c2c1C(=O)CC(C)(C)C2, the AC50 is reported as 3.16 µM [falling, single point]. With O=C(c1cc(-c2cccs2)on1)N1CCCCC1 the AC50 was 0.0501 µM [rising, partial curve, poor fit]. For Cc1ccccc1NC(=O)c1c(O)c2cccc3c2n(c1=O)CCC3, the AC50 was 20 µM [falling, single point]. With O=C(NCc1ccc2c(c1)OCO2)C(c1ccco1)N(C(=O)c1csnn1)c1ccccc1 (centres undefined) the AC50 was 5.01 µM [rising, single point]. With COc1ccc2ccccc2c1C1CC(=O)N2CN(C)CSC2=C1C#N (centres undefined) the AC50 was 3.16 µM [falling, partial curve]. For CCOC(=O)C1CCN(C(=O)c2cc3c(-c4ccc(OC)c(OC)c4)nn(C)c3s2)CC1, the AC50 was 2 µM [rising, full curve]. In the case of Cc1cc(C(=O)Nc2ccc3c(c2)OCO3)cs1, the AC50 is reported as 0.00398 µM [falling, full curve, poor fit]. With O=c1n(Cc2ccccc2)c2cc(Cl)cnc2n1Cc1ccccc1 the AC50 was 2.51 µM [rising, single point]. With O=C(CCc1c[nH]c2ccccc12)NCC1CCCO1 (centres undefined) the AC50 was 3.16 µM [falling, single point]. For Cc1ccc2oc(=O)c3cc(C(=O)NCc4ccco4)sc3c2c1, the AC50 was 2 µM [rising, full curve]. With CSc1nc2c(c(-c3ccc(O)cc3)c1C#N)CCC2 the AC50 was 12.6 µM [rising, partial curve]. With CCN(CC)c1ccc(NC(=O)c2cncc(Br)c2)cc1 the AC50 was 15.8 µM [falling, partial curve]. For CCOC(=O)c1oc2ccccc2c1NC(=O)Cc1cccs1, the AC50 was 12.6 µM [falling, partial curve, poor fit]. With COc1ccc(Oc2ncc3nc(-c4cccs4)c(=O)n(CCC#N)c3n2)cc1 the AC50 was 12.6 µM [rising, partial curve]. In the case of Cc1cc(NCCN2CCOCC2)n2nc(C)c(-c3ccccc3)c2n1, the AC50 is reported as 15.8 µM [rising, partial curve]. For O=c1c(-c2cccs2)nc2cncnc2n1Cc1ccccc1, the AC50 was 6.31 µM [rising, partial curve].
